# Over roughly 33,000 sequences, “E-score (-0.5 to 0.5)” has its median near -0.0034; the highest 2% begin near 0.25. Some of the results follow.
# Molecular target: T1, Yap3 (UniProt P38749)
# T1 sequence: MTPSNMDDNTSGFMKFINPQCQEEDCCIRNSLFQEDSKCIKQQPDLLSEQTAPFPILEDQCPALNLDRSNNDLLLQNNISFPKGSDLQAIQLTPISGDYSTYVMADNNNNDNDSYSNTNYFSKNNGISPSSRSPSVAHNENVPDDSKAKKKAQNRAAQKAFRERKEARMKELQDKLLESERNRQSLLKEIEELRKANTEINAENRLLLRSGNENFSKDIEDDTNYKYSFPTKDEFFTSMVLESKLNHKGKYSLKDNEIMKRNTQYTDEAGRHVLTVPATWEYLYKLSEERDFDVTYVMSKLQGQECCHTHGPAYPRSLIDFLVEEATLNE
# Assay: PBM E-score (8-mer binding enrichment) (E-score (-0.5 to 0.5)); higher = stronger / more preferred TF binding
# Conditions: protein concentration: 100 nM; construct: GST-full length
# Procedure, shortened: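 Yeast transcription factors, full-length or as DNA-binding domains, were expressed with a GST tag using PURExpress in vitro transcription/translation. At about 100-200 nM they were applied to universal all-10-mer Agilent arrays, double-stranded by primer extension on fresh or once-stripped slides. Fluorescent anti-GST detected bound protein, and masliner normalised the scans. E-scores for ungapped eight-base words, pooled with reverse complements, came from the Universal PBM Analysis Suite.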
row,Sequence,PBM E-score
1,ACGCGAAA,0.118
2,CTCGATCA,-0.104
3,CAGATAAG,-0.033
4,GTCTTATA,0.104
5,ACAGGGCA,0.0179
6,CACCTGTC,-0.0312
7,AGCACTCC,-0.138
8,GGTATTCA,0.17
9,CGCGCTGC,-0.00225
10,CCCGCTGC,-0.0956
11,CTGGAACA,0.117
12,GTCCCGCA,-0.185
13,GCGCTGCA,-0.0339
14,AGCAAACC,0.0941
15,ACGGTCCC,-0.379
16,GCCGGCTA,-0.0813
17,CGGTCACG,-0.12
18,AAACTTAC,0.13
19,AAAACTGT,0.187
20,CGTTATGA,0.0539
21,AGCTAAAC,-0.143
22,CGTCCTCC,-0.173
23,ATCTAGTC,-0.00285
24,CCCCACCA,-0.029
25,ATGGGATC,-0.142

row,Sequence,PBM E-score
1,GCACTGCA,0.0158
2,GACGCTAA,-0.164
3,CTGACGAA,0.123
4,AGAGTCGA,0.0234
5,ACGAGGCG,0.0872
6,GACAATTA,0.133
7,AGATAGCT,-0.177
8,CGGAGTAG,-0.0118
9,CCGAGGAG,-0.175
10,AGTTGAAC,0.00888
11,AGTGTTTC,0.0342
12,TGCTCACA,-0.0564
13,ATACTCGG,0.137
14,AAGAATAC,0.189
15,ATTCGAAC,0.139
16,GCGCACGC,-0.106
17,GCAGGCGC,-0.0699
18,AAGGCCCC,-0.285
19,ACTTACGC,0.122
20,CGCCCCCG,-0.356
21,TGGATGAA,0.168
22,GACTCTGA,-0.156
23,GTCGGGGA,-0.0604
24,CACGCACA,-0.0158
25,GCCACACA,0.00562

row,Sequence,PBM E-score
1,GAAGAATA,0.164
2,AGTGTAAC,-0.11
3,CGGGGACG,-0.285
4,ACGAACAA,0.228
5,AATTAGGG,-0.107
6,ACTGTGTC,-0.0354
7,CTGGCTAA,-0.101
8,CAATGGTA,0.169
9,ACAATCAC,0.154
10,AGGGAGCC,-0.339
11,ATGTCAGA,-0.0355
12,AAATGATT,0.19
13,AGATATCC,0.149
14,AGGGACAA,0.0875
15,ACCCCCTA,-0.384
16,GTAAAGGA,0.0965
17,CACTTGAG,-0.0401
18,TCCGTGAA,-0.0782
19,CTACTGGA,0.026
20,AGCGAACA,0.087
21,ACGATCGC,0.155
22,ACGAATAA,0.182
23,GCCGGGCC,-0.295
24,GGGCCTTA,-0.16
25,GACCAGAA,-0.00826

row,Sequence,PBM E-score
1,GCGAGGCC,-0.311
2,ACCAACCG,0.0526
3,GTACGAAC,0.212
4,GCAGAACA,0.12
5,AGGTCTCG,-0.219
6,GTTTCGAA,0.136
7,AGCCCCCA,-0.474
8,TCCTTGCA,-0.136
9,ATGTTTGA,0.0942
10,TCCTGGCA,0.0521
11,CATGTATA,0.17
12,CGCCGGGA,-0.262
13,GCGCTCCC,-0.17
14,CACGAACA,0.192
15,ATGCTGTG,0.0461
16,ATAACGTA,0.227
17,TAAGAGCA,0.123
18,ACGCGCAT,0.151
19,CAATAAAG,0.114
20,CCCCTGGA,-0.282
21,GCGAATCA,0.173
22,CCAAGGCC,-0.317
23,ATGAGTGG,-0.0814
24,GCTTAGAC,-0.055
25,CCTGGTAA,0.0581

# Given with bars between the fields: part of the list above.
row | Sequence | PBM E-score
24 | CACGCACA | -0.0158
25 | GCCACACA | 0.00562
1 | GAAGAATA | 0.164
2 | AGTGTAAC | -0.11
3 | CGGGGACG | -0.285
4 | ACGAACAA | 0.228
5 | AATTAGGG | -0.107
6 | ACTGTGTC | -0.0354
7 | CTGGCTAA | -0.101
8 | CAATGGTA | 0.169
9 | ACAATCAC | 0.154
10 | AGGGAGCC | -0.339
11 | ATGTCAGA | -0.0355
12 | AAATGATT | 0.19
13 | AGATATCC | 0.149
14 | AGGGACAA | 0.0875
15 | ACCCCCTA | -0.384
16 | GTAAAGGA | 0.0965
17 | CACTTGAG | -0.0401
18 | TCCGTGAA | -0.0782
19 | CTACTGGA | 0.026
20 | AGCGAACA | 0.087
21 | ACGATCGC | 0.155
22 | ACGAATAA | 0.182
23 | GCCGGGCC | -0.295
24 | GGGCCTTA | -0.16
25 | GACCAGAA | -0.00826
1 | GCGAGGCC | -0.311
2 | ACCAACCG | 0.0526
3 | GTACGAAC | 0.212
4 | GCAGAACA | 0.12
5 | AGGTCTCG | -0.219
6 | GTTTCGAA | 0.136
7 | AGCCCCCA | -0.474
8 | TCCTTGCA | -0.136
9 | ATGTTTGA | 0.0942
10 | TCCTGGCA | 0.0521
11 | CATGTATA | 0.17
12 | CGCCGGGA | -0.262
13 | GCGCTCCC | -0.17
14 | CACGAACA | 0.192
15 | ATGCTGTG | 0.0461
16 | ATAACGTA | 0.227
17 | TAAGAGCA | 0.123
18 | ACGCGCAT | 0.151
19 | CAATAAAG | 0.114
20 | CCCCTGGA | -0.282
21 | GCGAATCA | 0.173
22 | CCAAGGCC | -0.317
23 | ATGAGTGG | -0.0814

# (further entries)

row,Sequence,PBM E-score
1,CCTAGTAG,-0.127
2,ATTGATAA,0.119
3,CCCGACGA,0.0141
4,AGCACAAA,0.141
5,GAGTTTTA,0.0827
6,CACCATGC,-0.106
7,GTCCCGGA,-0.103
8,CAAGACGG,-0.147
9,ACCGAATA,0.119
10,ACCATCGT,-0.144
11,CAGATGGG,-0.188
12,GCATGAAC,0.0703
13,GCGGAATA,0.0469
14,CGGCGTTC,-0.168
15,CGTAGCAA,0.0639
16,GAGGCTTA,-0.0282
17,CGCAGTCC,-0.217
18,CTTCCAAC,-0.134
19,GTGGCTTA,-0.0122
20,CGGTAGGC,-0.171
21,TTTTAAAA,0.183
22,AGGGGAGA,-0.276
23,AGTGTACA,0.106
24,TCACGCGA,0.0612
25,AACGGGAG,0.00803

row,Sequence,PBM E-score
1,GCACGCAC,-0.226
2,ACACATAA,0.299
3,CCCCTTAA,-0.273
4,TCTCGGCA,-0.0847
5,ACACGTAG,-0.149
6,ACCTCACT,-0.0552
7,CCTCGAGA,0.103
8,GCGGGACC,-0.226
9,GAGCTTTA,-0.0664
10,TAGACGGA,0.113
11,AAGCTGCT,0.0356
12,GATCACGC,0.192
13,ACGGAGGC,-0.232
14,GGAGTTGA,-0.068
15,ACACTACA,0.113
16,TCCCGCAA,0.0613
17,CGTGACGA,0.0738
18,ACTCTCCG,-0.175
19,TATTACCA,0.196
20,CCAGTAGG,-0.0442
21,CTCCTAGC,-0.157
22,ACGAATAG,0.0225
23,CCCCCCTC,-0.432
24,TATAGTAA,0.27
25,TAGTACGA,0.092

row,Sequence,PBM E-score
1,GACAACAC,0.00619
2,ACCAATTA,0.274
3,CGAGTCGC,-0.232
4,AAGCGCAT,0.139
5,ACTCTTAT,0.238
6,GCGGTAGA,0.00783
7,CGCATACA,0.036
8,TATACAGA,0.182
9,GACCGTTA,0.148
10,CGCGTCTC,0.0723
11,TCAGGACA,0.027
12,CATCGCAC,-0.0244
13,CAGTACCC,-0.0866
14,ACCCACTG,-0.0269
15,ACCTAAAA,0.0796
16,GGCGTTCA,-0.151
17,GTTTTTAA,0.161
18,AGCTCAAC,-0.122
19,AGTGACTG,-0.0201
20,ACCCCTCG,-0.205
21,GCTCCACC,-0.326
22,ATCGCCGG,-0.0339

# Source: the supplement of paper PMC3334620
